Source: publication PMC12630025, “Characterization and inhibitor sensitivity of ARAF, BRAF, and CRAF kinases [drawing 1]” (The Journal of Biological Chemistry, 2025)
No constants are given. Whether binding was seen depends on the method and setting. Tags and fused reporters may be left off the sequences shown.

Target: his6-ARAF^282-579 (UniProt P10398)
Test: SEC; RAF construct and MEK1 coexpressed in SF9 cells; Ni-NTA (for some constructs then MESNA cleavage of the intein and chitin beads, or TEV cleavage and a second Ni-NTA), then gel filtration on Superdex 200; fractions analysed by SDS-PAGE; 50 mM Tris, 150 mM NaCl, 10 mM MgCl2, 1 mM TCEP, 1 μM AMP-PNP

- binding: no binding
B1: his6-ARAF^282-579 (domain or fragment, UniProt P10398 282-579)
chain: KSLADDKKKVKNLGYRDSGYYWEVPPSEVQLLKRIGTGSFGTVFRGRWHGDVAVKVLKVSQPTAEQAQAFKNEMQVLRKTRHVNILLFMGFMTRPGFAIITQWCEGSSLYHHLHVADTRFDMVQLIDVARQTAQGMDYLHAKNIIHRDLKSNNIFLHEGLTVKIGDFGLATVKTRWSGAQPLEQPSGSVLWMAAEVIRMQDPNPYSFQSDVYAYGVVLYELMTGSLPYSHIGCRDQIIFMVGRGYLSPDLSKISSNCPKAMRRLLSDCLKFQREERPLFPQILATIELLQRSLPKIER
